Assay results as given in PMC12483569.
Results are given in words; binding and its absence hold for the method and conditions named. Binding seen in cells or lysates may run through a third protein. Here binding means that the protein was enriched with, or labelled near, the bait; the list need not be complete. Tags and fused reporters may be left off the sequences shown.

Chains of the proteins cited; added tags and fusions are not shown.
UniProt P70168: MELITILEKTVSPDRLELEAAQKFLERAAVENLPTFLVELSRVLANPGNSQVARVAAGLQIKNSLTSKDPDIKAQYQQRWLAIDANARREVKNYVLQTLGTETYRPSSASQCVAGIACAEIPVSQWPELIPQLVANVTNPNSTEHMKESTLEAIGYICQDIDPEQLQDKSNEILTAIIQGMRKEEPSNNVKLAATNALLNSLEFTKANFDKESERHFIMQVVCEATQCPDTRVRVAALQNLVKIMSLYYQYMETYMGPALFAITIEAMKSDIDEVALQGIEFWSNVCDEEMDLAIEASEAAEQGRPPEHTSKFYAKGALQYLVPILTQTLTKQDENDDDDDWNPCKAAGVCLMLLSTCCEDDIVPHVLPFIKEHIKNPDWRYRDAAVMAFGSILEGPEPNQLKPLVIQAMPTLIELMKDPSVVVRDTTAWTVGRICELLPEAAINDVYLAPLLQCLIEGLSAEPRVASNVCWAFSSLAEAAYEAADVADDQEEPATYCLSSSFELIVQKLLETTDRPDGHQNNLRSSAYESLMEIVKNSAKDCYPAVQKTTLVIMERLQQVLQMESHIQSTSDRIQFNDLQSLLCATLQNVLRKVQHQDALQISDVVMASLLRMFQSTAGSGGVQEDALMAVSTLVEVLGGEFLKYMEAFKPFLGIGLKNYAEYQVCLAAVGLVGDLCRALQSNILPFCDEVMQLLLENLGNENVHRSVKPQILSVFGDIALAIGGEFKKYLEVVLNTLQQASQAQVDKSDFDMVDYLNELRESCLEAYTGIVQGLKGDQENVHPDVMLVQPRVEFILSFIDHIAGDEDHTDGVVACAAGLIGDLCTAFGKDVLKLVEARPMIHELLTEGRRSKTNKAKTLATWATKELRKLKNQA
UniProt Q3TKT4: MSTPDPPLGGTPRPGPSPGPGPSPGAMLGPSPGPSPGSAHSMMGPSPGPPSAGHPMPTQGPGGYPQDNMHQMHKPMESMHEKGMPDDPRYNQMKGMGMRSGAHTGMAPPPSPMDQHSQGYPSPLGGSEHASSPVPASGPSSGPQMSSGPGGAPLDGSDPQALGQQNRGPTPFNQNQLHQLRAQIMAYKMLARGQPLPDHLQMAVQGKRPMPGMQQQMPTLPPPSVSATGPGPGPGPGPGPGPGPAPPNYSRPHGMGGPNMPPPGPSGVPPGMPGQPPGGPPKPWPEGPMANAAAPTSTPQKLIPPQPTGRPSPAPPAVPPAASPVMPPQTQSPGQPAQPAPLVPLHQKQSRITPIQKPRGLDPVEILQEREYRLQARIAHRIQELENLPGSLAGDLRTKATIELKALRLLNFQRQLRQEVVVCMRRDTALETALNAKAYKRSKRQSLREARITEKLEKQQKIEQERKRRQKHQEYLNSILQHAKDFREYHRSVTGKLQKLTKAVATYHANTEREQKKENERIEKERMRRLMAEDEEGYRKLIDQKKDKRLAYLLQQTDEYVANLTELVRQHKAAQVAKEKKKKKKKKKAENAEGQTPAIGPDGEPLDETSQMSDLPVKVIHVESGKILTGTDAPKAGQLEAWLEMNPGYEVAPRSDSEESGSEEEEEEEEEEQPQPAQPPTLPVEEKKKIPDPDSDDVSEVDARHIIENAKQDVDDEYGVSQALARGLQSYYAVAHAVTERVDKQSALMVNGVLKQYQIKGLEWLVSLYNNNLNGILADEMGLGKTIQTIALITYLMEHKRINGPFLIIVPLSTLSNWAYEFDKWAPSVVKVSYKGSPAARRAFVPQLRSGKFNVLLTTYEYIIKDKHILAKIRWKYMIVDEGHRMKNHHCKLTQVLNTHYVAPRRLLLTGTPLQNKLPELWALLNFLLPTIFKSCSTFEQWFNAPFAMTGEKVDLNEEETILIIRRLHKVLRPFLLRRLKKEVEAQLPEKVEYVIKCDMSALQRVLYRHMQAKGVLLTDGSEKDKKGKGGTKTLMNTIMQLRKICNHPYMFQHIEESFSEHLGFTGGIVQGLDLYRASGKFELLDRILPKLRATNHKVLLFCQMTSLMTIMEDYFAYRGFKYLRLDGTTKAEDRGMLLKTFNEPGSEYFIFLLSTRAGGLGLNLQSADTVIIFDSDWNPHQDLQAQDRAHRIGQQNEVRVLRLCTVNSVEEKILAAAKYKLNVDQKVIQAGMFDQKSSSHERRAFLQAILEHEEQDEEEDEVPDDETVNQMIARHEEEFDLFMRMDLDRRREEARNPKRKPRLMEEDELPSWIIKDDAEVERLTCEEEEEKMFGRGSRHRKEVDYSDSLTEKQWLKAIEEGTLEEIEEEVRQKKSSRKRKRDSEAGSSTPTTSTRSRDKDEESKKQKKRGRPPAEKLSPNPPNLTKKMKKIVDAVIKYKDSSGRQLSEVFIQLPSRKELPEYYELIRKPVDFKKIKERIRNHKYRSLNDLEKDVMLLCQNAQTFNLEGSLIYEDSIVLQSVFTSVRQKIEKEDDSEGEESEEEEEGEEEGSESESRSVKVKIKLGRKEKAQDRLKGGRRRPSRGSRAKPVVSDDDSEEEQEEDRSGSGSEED
UniProt Q6P5F9: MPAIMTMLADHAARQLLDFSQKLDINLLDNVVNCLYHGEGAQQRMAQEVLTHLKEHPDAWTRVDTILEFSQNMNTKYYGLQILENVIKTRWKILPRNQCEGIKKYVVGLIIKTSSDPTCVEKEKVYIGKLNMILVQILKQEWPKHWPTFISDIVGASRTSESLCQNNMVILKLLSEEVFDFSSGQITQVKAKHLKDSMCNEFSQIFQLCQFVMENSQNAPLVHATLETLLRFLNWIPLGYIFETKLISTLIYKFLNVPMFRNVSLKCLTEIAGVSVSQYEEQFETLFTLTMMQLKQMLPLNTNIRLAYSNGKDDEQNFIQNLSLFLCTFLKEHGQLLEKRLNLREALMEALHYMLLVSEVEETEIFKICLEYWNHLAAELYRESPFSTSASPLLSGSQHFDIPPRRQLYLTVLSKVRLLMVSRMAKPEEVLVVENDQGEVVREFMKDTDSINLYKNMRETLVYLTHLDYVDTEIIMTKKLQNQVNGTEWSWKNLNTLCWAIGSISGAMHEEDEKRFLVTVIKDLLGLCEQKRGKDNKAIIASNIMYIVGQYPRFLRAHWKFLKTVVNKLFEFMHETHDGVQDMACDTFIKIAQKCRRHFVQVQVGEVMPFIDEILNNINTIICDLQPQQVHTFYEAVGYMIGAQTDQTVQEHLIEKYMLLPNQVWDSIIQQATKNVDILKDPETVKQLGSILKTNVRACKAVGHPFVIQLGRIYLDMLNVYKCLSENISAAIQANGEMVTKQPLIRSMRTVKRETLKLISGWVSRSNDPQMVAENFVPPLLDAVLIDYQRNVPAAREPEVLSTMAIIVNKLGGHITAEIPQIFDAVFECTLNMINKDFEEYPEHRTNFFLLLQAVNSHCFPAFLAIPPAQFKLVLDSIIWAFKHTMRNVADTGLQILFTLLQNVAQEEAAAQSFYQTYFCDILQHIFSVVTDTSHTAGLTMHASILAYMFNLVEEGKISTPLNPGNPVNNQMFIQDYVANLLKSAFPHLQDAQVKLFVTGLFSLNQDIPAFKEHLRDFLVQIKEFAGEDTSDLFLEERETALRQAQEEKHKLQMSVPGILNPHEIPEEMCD

Target: T1, SGK3-TurboID fusion used for proximity labeling (UniProt Q9ERE3)
T1 sequence: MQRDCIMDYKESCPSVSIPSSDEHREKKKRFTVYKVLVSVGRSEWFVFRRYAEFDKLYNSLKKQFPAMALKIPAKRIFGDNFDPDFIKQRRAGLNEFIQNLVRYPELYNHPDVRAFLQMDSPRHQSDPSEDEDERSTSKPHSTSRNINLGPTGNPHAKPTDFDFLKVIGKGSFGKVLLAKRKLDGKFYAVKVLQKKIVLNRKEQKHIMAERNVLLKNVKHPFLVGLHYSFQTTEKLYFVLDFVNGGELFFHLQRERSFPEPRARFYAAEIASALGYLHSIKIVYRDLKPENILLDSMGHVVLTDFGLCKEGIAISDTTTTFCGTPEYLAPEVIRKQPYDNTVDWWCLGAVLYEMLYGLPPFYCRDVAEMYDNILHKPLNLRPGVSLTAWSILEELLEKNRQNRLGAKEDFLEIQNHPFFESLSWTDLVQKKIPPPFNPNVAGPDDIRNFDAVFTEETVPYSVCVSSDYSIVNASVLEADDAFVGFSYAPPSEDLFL
Assay: proximity labelling; TurboID-based proximity labeling combined with mass spectrometry; SGK3-TurboID as bait; biotin-labeled proteins compared between cells treated with MDI for 0 and 3 days

binding, binds:
Importin β1 (from UniProt P70168 1-876)
SMARCA4 (BRG1), core subunit of the BAF (SWI/SNF) complex, in differentiating SVF cells (from UniProt Q3TKT4 1-1613)
exportin-1 (from UniProt Q6P5F9 1-1071)
